These are yes or no findings as the source states them, for the method shown. Binding seen in cells or lysates may run through a third protein. Some binding calls cover weakened binding; strength is not graded here.
Target: ZZ-tagged human WIP (human) (UniProt O43516)
Assay: pull-down; co-purification: 293F lysates incubated with IgG Sepharose 6 beads in XB buffer (100 mM KCl, 0.1 mM CaCl2, 1 mM MgCl2, 10 mM Hepes, pH 7.4) to capture ZZ-WIP; extensive washing; N-WASP–WIP complex released by TEV protease overnight; 4°C

Amino acid sequences for entries named in this document (tags omitted).
UniProt O43516: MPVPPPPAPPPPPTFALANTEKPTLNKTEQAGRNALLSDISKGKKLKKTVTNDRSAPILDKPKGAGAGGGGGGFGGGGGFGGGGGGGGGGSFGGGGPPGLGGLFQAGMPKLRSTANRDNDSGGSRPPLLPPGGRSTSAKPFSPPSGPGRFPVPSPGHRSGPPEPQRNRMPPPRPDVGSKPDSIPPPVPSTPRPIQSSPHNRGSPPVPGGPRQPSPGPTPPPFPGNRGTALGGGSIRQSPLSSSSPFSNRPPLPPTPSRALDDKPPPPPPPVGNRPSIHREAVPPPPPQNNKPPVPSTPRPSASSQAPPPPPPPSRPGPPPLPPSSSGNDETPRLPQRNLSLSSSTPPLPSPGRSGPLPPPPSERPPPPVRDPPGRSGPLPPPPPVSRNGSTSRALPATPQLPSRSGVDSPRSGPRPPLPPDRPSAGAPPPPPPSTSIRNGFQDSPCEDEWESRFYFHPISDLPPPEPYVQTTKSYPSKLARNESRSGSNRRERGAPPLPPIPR
UniProt Q6NX29: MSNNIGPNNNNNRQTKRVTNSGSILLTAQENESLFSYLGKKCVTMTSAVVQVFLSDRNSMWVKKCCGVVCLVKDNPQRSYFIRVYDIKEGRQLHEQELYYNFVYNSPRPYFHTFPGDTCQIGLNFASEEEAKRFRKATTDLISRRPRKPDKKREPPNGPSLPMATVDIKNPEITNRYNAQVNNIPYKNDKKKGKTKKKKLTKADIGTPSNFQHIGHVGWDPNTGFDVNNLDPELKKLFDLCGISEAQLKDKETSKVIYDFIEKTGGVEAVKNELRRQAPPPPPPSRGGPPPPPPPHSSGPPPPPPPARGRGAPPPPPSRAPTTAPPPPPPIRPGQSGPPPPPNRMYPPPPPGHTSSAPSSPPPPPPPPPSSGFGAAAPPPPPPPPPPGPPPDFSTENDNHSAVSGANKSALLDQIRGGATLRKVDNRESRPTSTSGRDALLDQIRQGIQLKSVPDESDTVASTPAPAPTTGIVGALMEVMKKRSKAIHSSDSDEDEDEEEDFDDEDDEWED

binding: binds
Substance: SNAP-tagged X. tropicalis N-WASP (from UniProt Q6NX29 1-511)
